Some results were stated once for a whole list of compounds, not compound by compound.
Tests used:
Format in all cases: in vivo
Heliothis virescens = experiment: Tobacco budworm (Heliothis virescens) egg/larval test on insect diet in 96-well microtiter plates; settings: 2500 ppm; egg and larval mortality; 5 days
Experimental: B.2 Tobacco Budworm (Heliothis virescens)
For evaluating control of tobacco budworm (Heliothis virescens), the test unit consisted of 96-well-microtiter plates containing an insect diet and 15-25 H. virescens eggs.
The compounds were formulated using a solution containing 75% v/v water and 25% v/v DMSO. Different concentrations of formulated compounds were sprayed onto the insect diet at 10 μl, using a custom-built micro atomizer, at two replications.
After application, microtiter plates were incubated at about 28±1° C. and about 80±5% relative humidity for 5 days. Egg and larval mortality was then visually assessed.

Spodoptera eridania = experiment: Southern armyworm (Spodoptera eridania), 2nd instar larvae, foliar spray on lima bean plants; settings: 300 ppm; 2nd instar larvae on sprayed lima bean; 4 days after treatment
Experimental: B.4. Southern Armyworm (Spodoptera eridania), 2nd Instar Larvae
The active compounds were formulated by a Tecan liquid handler in 100% cyclohexanone as a 10,000-ppm solution supplied in tubes. The 10,000-ppm solution was serially diluted in 100% cyclohexanone to make interim solutions. These served as stock solutions for which final dilutions were made by the Tecan in 50% acetone:50% water (v/v) into 10 or 20 ml glass vials. A non-ionic surfactant (Kinetic®) was included in the solution at a volume of 0.01% (v/v). The vials were then inserted into an automated electrostatic sprayer equipped with an atomizing nozzle for application to plants/insects. Lima bean plants (variety Sieva) were grown 2 plants to a pot and selected for treatment at the 1st true leaf stage. Test solutions were sprayed onto the foliage by an auto-mated electrostatic plant sprayer equipped with an atomizing spray nozzle. The plants were dried in the sprayer fume hood and then removed from the sprayer. Each pot was placed into perforated plastic bags with a zip closure. Ten to 11 armyworm larvae were placed into the bag and the bags zipped closed. Test plants were maintained in a growth room at about 25° C. and about 20-40% relative humidity for 4 days, avoiding direct exposure to fluorescent light (14:10 light:dark photoperiod) to prevent trapping of heat inside the bags. Mortality and reduced feeding were assessed 4 days after treatment, compared to untreated control plants.

Anthonomus grandis = experiment: Boll weevil (Anthonomus grandis) egg/larval test on insect diet in 96-well microtiter plates; settings: 2500 ppm; egg and larval mortality; 5 days
Experimental: B.3 Boll Weevil (Anthonomus grandis)
For evaluating control of boll weevil (Anthonomus grandis), the test unit consisted of 96-well-microtiter plates containing an insect diet and 5-10 A. grandis eggs.
The compounds were formulated using a solution containing 75% v/v water and 25% v/v DMSO. Different concentrations of formulated compounds were sprayed onto the insect diet at 5 μl, using a custom-built micro atomizer, at two replications.
After application, microtiter plates were incubated at about 25±1° C. and about 75±5% relative humidity for 5 days. Egg and larval mortality was then visually assessed.

Aedes aegypti = settings: 2500 ppm; larval mortality; 2 days
Experimental: B.5 Yellow Fever Mosquito (Aedes aegypti)
For evaluating control of yellow fever mosquito (Aedes aegypti) the test unit consisted of 96-well-microtiter plates containing 200 μl of tap water per well and 5-15 freshly hatched A. aegypti larvae.
The active compounds were formulated using a solution containing 75% (v/v) water and 25% (v/v) DMSO. Different concentrations of formulated compounds or mixtures were sprayed onto the insect diet at 2.5 μl, using a custom-built micro atomizer, at two replications.
After application, microtiter plates were incubated at 28±1° C., 80±5% RH for 2 days. Larval mortality was then visually assessed.

Measured: mortality in comparison with untreated controls

CNC(=O)NN=C(C)c1nccnc1C(C)NC(=O)c1cc(C(F)(F)F)cc(C(F)(F)F)c1 (stereo not shown) [I-10]
at least 75%: all assays above

CCON=C(C)c1nccnc1C(C)NC(=O)c1cc(C(F)(F)F)cc(C(F)(F)F)c1 (stereo not shown) [I-11]
at least 75%: all assays above

CON=C(C)c1nccnc1C(C)NC(=O)c1cc(Cl)cc(S(=O)(=O)c2ccc(F)cc2)c1 (stereo not shown) [I-16]
at least 75%: all assays above

CC(NC(=O)c1cc(C(F)(F)F)cc(C(F)(F)F)c1)c1nccnc1C=NNC(=O)NCC1CC1 (stereo not shown) [I-22]
at least 75%: all assays above

CC(C)OCCON=Cc1nccnc1C(C)NC(=O)c1cc(C(F)(F)F)cc(C(F)(F)F)c1 (stereo not shown) [I-24]
at least 75%: all assays above

CC(=NNC(=O)NCC1CC1)c1nccnc1C(C)NC(=O)c1cc(C(F)(F)F)cc(C(F)(F)F)c1 (stereo not shown) [I-30]
at least 75%: all assays above

CC(=NNC(=O)NCc1ccc(Cl)cc1)c1nccnc1C(C)NC(=O)c1cc(C(F)(F)F)cc(C(F)(F)F)c1 (stereo not shown) [I-64]
at least 75%: all assays above

CC(=NOCc1ccc(C(F)(F)F)cn1)c1nccnc1C(C)NC(=O)c1cc(C(F)(F)F)cc(C(F)(F)F)c1 (stereo not shown) [I-75]
at least 75%: all assays above

CSCCON=C(C)c1nccnc1C(C)NC(=O)c1cc(C(F)(F)F)cc(C(F)(F)F)c1 (stereo not shown) [I-76]
at least 75%: all assays above

CC(=NOC1CCOC1)c1nccnc1C(C)NC(=O)c1cc(C(F)(F)F)cc(C(F)(F)F)c1 (stereo not shown) [I-78]
at least 75%: all assays above

CC(=NNC(=O)NCC=C(Cl)Cl)c1nccnc1C(C)NC(=O)c1cc(C(F)(F)F)cc(C(F)(F)F)c1 (stereo not shown) [I-87]
at least 75%: all assays above

CC(=NNC(=O)Nc1cscn1)c1nccnc1C(C)NC(=O)c1cc(C(F)(F)F)cc(C(F)(F)F)c1 (stereo not shown) [I-95]
at least 75%: all assays above

CC(NC(=O)c1cc(C(F)(F)F)cc(C(F)(F)F)c1)c1nccnc1C=NOCC#N (stereo not shown) [I-102]
at least 75%: all assays above
